# Experimental data: publication PMC10981689
# The chains behind the UniProt entries cited, without tags or fusion partners.
# UniProt Q80SY3: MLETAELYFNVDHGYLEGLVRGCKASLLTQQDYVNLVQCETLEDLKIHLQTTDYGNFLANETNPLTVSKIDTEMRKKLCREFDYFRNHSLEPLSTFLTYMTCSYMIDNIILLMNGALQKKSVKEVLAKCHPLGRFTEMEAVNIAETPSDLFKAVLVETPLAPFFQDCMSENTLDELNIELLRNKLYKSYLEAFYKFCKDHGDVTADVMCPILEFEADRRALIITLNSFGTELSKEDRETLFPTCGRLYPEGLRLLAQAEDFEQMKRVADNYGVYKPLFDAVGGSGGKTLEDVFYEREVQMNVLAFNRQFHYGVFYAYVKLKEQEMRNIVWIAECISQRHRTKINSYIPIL
# No constants are given. Whether binding was seen depends on the method and setting. In cells and extracts the contact can be indirect. Some binding calls cover weakened binding; strength is not graded here. Where a sequence is shown, tags or fusion partners need not be part of it.
# Molecular target: T1, Myc-tagged TM4SF19 (transmembrane 4 L six family member 19) (mouse) (UniProt E9Q9H8)
# T1 sequence: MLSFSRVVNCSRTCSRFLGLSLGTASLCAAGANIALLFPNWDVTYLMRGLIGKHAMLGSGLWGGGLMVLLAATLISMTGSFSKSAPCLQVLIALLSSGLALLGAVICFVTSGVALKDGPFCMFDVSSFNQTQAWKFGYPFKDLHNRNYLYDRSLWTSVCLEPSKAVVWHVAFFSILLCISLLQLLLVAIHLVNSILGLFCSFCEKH
# Assay: co-IP; lysate of RAW264.7 macrophages overexpressing Myc-fused TM4SF19 (50 mM Tris-HCl pH 7.6, 150 mM NaCl, 2 mM EDTA, protease inhibitor); anti-Myc or control IgG on Protein A/G magnetic beads, 300 ug lysate, 4 h at 4 °C; washed five times in TBS with 0.05% Tween-20; eluted with 0.1 M glycine pH 2.0; immunoblot
row,binding,Substance
1,binds,ATP6V0B (from UniProt Q91V37 1-205)
2,binds,ATP6V0D2 (from UniProt Q80SY3 1-350)
